Data source: PubChem BioAssay AID1159578 (Peter MacCallum Cancer Centre, 2015)
Shown is one part, drawn at random, of about 18,000 reagents. In the full data, about 1,030 (5.7%) are marked active. 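Inactive calls also include pools with fewer than 3300 nuclei, whose migration was not assessed.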 Raw values vary from plate to plate and are shown uncorrected. Further read-outs or replicates are left out here. Reagent sequences are not shown.

Aim: 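siRNA pools altering how lymphatic endothelial cells close a scratch wound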 (primary screen)
Cell system: human lymphatic endothelial cells
Reagent: siRNA pool against human genes, 40 nM
Timing: 48 h after transfection
Measurement: 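Cells stained with dye and imaged after a scratch; covered wound area and nuclei counted, duplicates averaged, migration set against mock wells and turned into a robust z-score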
Reading the numbers: migration robust z-score: higher = faster migration into the scratch; nuclei per well: higher = more cells in the well
Call rule: 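Migration changed when robust z exceeds 2 or falls below -2 and mean nuclei number is at least 3300; otherwise not called changed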
Calls: active = migration changed; inactive = no migration change, or too few cells

| gene symbol | migration robust z-score | migration class with cell-count check | nuclei per well, duplicate mean | Outcome |
| --- | --- | --- | --- | --- |
| BEST1 (GeneID 7439) | -1.12 | migration z between -2 and 2; enough cells | 5390 | inactive |
| RAB28 (GeneID 9364) | 1.53 | migration z between -2 and 2; enough cells | 6066 | inactive |
| RCC1L (GeneID 81554) | 0.04 | migration z between -2 and 2; enough cells | 5352 | inactive |
| NUP93 (GeneID 9688) | -0.24 | migration z between -2 and 2; enough cells | 5658 | inactive |
| TSEN15 (GeneID 116461) | 0.04 | migration z between -2 and 2; enough cells | 6489 | inactive |
| GFER (GeneID 2671) | -2.77 | under 3300 nuclei; migration not judged | 2186 | inactive |
| RBP2 (GeneID 5948) | -0.6 | migration z between -2 and 2; enough cells | 5486 | inactive |
| KCNH3 (GeneID 23416) | 0.28 | migration z between -2 and 2; enough cells | 5418 | inactive |
| KCND1 (GeneID 3750) | 0.62 | migration z between -2 and 2; enough cells | 4298 | inactive |
| SIGLEC1 (GeneID 6614) | 1.04 | migration z between -2 and 2; enough cells | 6324 | inactive |
| GGT5 (GeneID 2687) | 0.13 | migration z between -2 and 2; enough cells | 5102 | inactive |
| SOX17 (GeneID 64321) | -0.4 | migration z between -2 and 2; enough cells | 5928 | inactive |
| IREB2 (GeneID 3658) | -0.68 | migration z between -2 and 2; enough cells | 5694 | inactive |
| COPS2 (GeneID 9318) | 0.1 | migration z between -2 and 2; enough cells | 5480 | inactive |
| LRIT2 (GeneID 340745) | -1.03 | migration z between -2 and 2; enough cells | 3659 | inactive |
| C22orf23 (GeneID 84645) | 1.67 | migration z between -2 and 2; enough cells | 4422 | inactive |
| KRTAP20-1 (GeneID 337975) | -1.04 | migration z between -2 and 2; enough cells | 5392 | inactive |
| BANF1 (GeneID 8815) | -1.53 | migration z between -2 and 2; enough cells | 5856 | inactive |
| PCSK1 (GeneID 5122) | 0.11 | migration z between -2 and 2; enough cells | 5539 | inactive |
| ITGA8 (GeneID 8516) | -0.8 | migration z between -2 and 2; enough cells | 7052 | inactive |
| BORCS7 (GeneID 119032) | 0.97 | migration z between -2 and 2; enough cells | 5686 | inactive |
| ADH1C (GeneID 126) | -2.13 | migration z below -2; enough cells | 3420 | active |
| FUT9 (GeneID 10690) | -0.3 | migration z between -2 and 2; enough cells | 6582 | inactive |
| FAM228A (GeneID 653140) | 0.32 | migration z between -2 and 2; enough cells | 5826 | inactive |
| SNU13 (GeneID 4809) | -1.15 | migration z between -2 and 2; enough cells | 6092 | inactive |
| OR2F1 (GeneID 26211) | -2.78 | under 3300 nuclei; migration not judged | 2798 | inactive |
| ADPRHL1 (GeneID 113622) | -0.65 | migration z between -2 and 2; enough cells | 5694 | inactive |
| HCFC2 (GeneID 29915) | 0.08 | migration z between -2 and 2; enough cells | 5796 | inactive |
| FBLN7 (GeneID 129804) | 0.52 | migration z between -2 and 2; enough cells | 5724 | inactive |
| KLRD1 (GeneID 3824) | -0.44 | migration z between -2 and 2; enough cells | 4712 | inactive |
| LINC02145 (GeneID 401172) | 0.02 | migration z between -2 and 2; enough cells | 5190 | inactive |
| PGAP4 (GeneID 84302) | -1.27 | under 3300 nuclei; migration not judged | 3294 | inactive |
| SH3YL1 (GeneID 26751) | -1.46 | migration z between -2 and 2; enough cells | 5350 | inactive |
| ZNF287 (GeneID 57336) | -0.72 | migration z between -2 and 2; enough cells | 5680 | inactive |
| REEP1 (GeneID 65055) | 1.77 | migration z between -2 and 2; enough cells | 6105 | inactive |
| GSTT1 (GeneID 2952) | 0.86 | migration z between -2 and 2; enough cells | 7544 | inactive |
| BUB1B (GeneID 701) | -2.29 | migration z below -2; enough cells | 4434 | active |
| CD4 (GeneID 920) | 1.81 | migration z between -2 and 2; enough cells | 5255 | inactive |
| DDX56 (GeneID 54606) | -0.04 | migration z between -2 and 2; enough cells | 5614 | inactive |
| PAM (GeneID 5066) | 0.42 | migration z between -2 and 2; enough cells | 5571 | inactive |
| ARPC5 (GeneID 10092) | -1.38 | migration z between -2 and 2; enough cells | 6048 | inactive |
| MAMSTR (GeneID 284358) | 0.42 | migration z between -2 and 2; enough cells | 5910 | inactive |
| LHX9 (GeneID 56956) | -0.4 | migration z between -2 and 2; enough cells | 4466 | inactive |
| BEX3 (GeneID 27018) | 1.21 | migration z between -2 and 2; enough cells | 5896 | inactive |
| DUS1L (GeneID 64118) | 2.66 | migration z above 2; enough cells | 5740 | active |
| LRFN4 (GeneID 78999) | -2.58 | migration z below -2; enough cells | 6150 | active |
| PCDH18 (GeneID 54510) | -0.21 | migration z between -2 and 2; enough cells | 5795 | inactive |
| NLN (GeneID 57486) | -1.53 | migration z between -2 and 2; enough cells | 4796 | inactive |
| RDH11 (GeneID 51109) | -3.14 | migration z below -2; enough cells | 6649 | active |
| CLEC17A (GeneID 388512) | -2 | migration z between -2 and 2; enough cells | 5340 | inactive |
| SLC25A16 (GeneID 8034) | 0.68 | migration z between -2 and 2; enough cells | 4932 | inactive |
| FPR3 (GeneID 2359) | -1.27 | migration z between -2 and 2; enough cells | 4708 | inactive |
| PAPPA (GeneID 5069) | 0.31 | migration z between -2 and 2; enough cells | 5300 | inactive |
| ANPEP (GeneID 290) | -0.39 | migration z between -2 and 2; enough cells | 5672 | inactive |
| ENPEP (GeneID 2028) | 0.91 | migration z between -2 and 2; enough cells | 5750 | inactive |
| TNFRSF11A (GeneID 8792) | 0.9 | migration z between -2 and 2; enough cells | 6038 | inactive |
| NAMPT (GeneID 10135) | -0.88 | migration z between -2 and 2; enough cells | 5866 | inactive |
